Measurements published in patent US12653217B2, “Composition for enhancing umami comprising tyrosine-amino acid peptide and use thereof” (INDUSTRY-ACADEMIC COOPERATION FOUNDATION GYEONGSANG …, priority 2021, dated 2026).

Assays:
[1] = Electronic tongue, purified water samples: comparison of umami intensity with amino acids; details: same concentration, FIG. 1
Procedure: The taste component pattern of the yogurt samples was analyzed by using an electronic sensor. Specifically, the analysis was conducted by using an electronic tongue system (ASTREE, Alpha MOS, Toulouse, France) equipped with sensors for five basic taste components perceived by humans: sourness (SRS), saltiness (STS), umami (UMS), sweetness (SWS), and bitterness (BRS). Additional sensors, GPS and SPS, were used as reference values for calibration. For analysis of the water-soluble taste components, 10 mL of the test sample were dissolved in 90 mL of purified water in a vial specifically designed for electronic tongue analysis. The sample solution was then loaded into the sampler of the electronic tongue system. The sensors were immersed in the sample solution for 2 minutes to measure, through contact with the sample, the intensity of taste components associated with each sensor. To minimize errors from cross-contamination between samples, the sensors were washed with purified water between each analysis. Individual results were obtained as taste pattern for each taste component, and the taste component pattern among the samples was examined through principal component analysis (PCA).
Each sample (10 mg) was dissolved in 100 mL of purified water and injected into the vial for electronic tongue analysis. […] Each sample was repeatedly analyzed five times.

[2] = Electronic tongue: change in umami with respect to pH (citric acid buffer); details: pH 4.0, 7.0, 10.0
Procedure: Each sample (10 mg) was dissolved in 100 mL of purified water and injected into the vial for electronic tongue analysis. To remove solid particles and fine particles that could interfere with the analysis, the samples were pre-treated by filtration to give liquid samples. The sample solution was loaded into the sampler of the electronic tongue system. The sensors were immersed in the sample solution for 2 minutes to measure, through contact with the sample, the intensity of taste components associated with each sensor. To minimize errors from cross-contamination between samples, the sensors were thoroughly washed with purified water between each analysis, and then used for the next sample analysis. Each sample was repeatedly analyzed five times.
Furthermore, to investigate a change in umami of tyrosine peptide in response to pH variations, experiments were conducted at acidic, neutral, and alkaline pH ranges. The pH values used were 4.0, 7.0, and 10.0. Buffer solutions containing citric acid were utilized for the experiments.
Therefore, it can be concluded that the umami components present in the two samples have stability against pH variations.

Substance	umami intensity relative to the individual amino acids Gln, Tyr and Trp [1]	change in umami intensity with respect to pH variations [2]
H-Tyr-Trp-OH [YW]	almost twice as strong	no significant change
H-Tyr-Gln-OH [YQ]	almost twice as strong	no significant change
